# In patent publication US11186605B2 (KYOWA HAKKO BIO CO., LTD., priority 2016, dated 2021):
# Conditions: mass ppm in crystal; N.D. = below a detection limit
Substance,Residual solvent Ethyl acetate [ppm],Residual solvent Methanol [ppm],Residual solvent Ethanol [ppm]
cytidine diphosphate choline [Comparative Example 1],240,2482,
cytidine diphosphate choline [Comparative Example 2],667,3937,412
cytidine diphosphate choline [Comparative Example 3],,,170
cytidine diphosphate choline [Comparative Example 4],,,490
cytidine diphosphate choline [Example 1],,,177
cytidine diphosphate choline [Example 2],,,173
cytidine diphosphate choline [Example 3],,,423
cytidine diphosphate choline [Example 4],,,340
cytidine diphosphate choline [Product of company A],,64,201
cytidine diphosphate choline [Product of company B],,42,130
cytidine diphosphate choline [Product of company C],,26,305
